The results in this text go back to PMC5142155.

Protein sequences, listed by entry. Tags and fused reporters are not part of them. Residues count along the entry.
UniProt Q7Z6B7: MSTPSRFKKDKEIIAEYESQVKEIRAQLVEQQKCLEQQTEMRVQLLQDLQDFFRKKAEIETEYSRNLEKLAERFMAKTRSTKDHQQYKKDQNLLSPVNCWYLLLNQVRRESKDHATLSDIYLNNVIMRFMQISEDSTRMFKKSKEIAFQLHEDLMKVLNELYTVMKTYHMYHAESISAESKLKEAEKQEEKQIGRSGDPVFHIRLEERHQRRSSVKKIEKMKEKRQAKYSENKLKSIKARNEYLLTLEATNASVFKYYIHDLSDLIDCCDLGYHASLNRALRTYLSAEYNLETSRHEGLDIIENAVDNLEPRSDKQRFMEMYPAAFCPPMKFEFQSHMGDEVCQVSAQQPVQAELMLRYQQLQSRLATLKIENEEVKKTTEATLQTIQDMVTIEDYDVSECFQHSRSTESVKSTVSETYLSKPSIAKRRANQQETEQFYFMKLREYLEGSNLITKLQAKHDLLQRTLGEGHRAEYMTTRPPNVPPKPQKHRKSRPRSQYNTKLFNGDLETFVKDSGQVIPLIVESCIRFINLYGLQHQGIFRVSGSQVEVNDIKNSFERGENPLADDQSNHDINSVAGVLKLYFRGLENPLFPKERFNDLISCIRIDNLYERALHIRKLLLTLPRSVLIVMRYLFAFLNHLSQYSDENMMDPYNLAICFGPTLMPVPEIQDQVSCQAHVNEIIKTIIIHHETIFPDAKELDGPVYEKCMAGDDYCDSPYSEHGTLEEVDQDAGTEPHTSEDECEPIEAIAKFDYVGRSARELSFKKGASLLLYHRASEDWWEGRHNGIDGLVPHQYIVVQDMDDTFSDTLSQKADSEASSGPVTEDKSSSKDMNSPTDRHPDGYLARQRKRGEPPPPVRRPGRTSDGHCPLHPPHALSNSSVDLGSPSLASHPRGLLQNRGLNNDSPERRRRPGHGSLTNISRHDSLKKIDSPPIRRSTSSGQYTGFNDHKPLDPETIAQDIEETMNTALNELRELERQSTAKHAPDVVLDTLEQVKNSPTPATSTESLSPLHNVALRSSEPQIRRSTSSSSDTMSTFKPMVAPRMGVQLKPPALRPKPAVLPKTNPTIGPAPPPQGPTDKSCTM
UniProt Q9Y6N7, residues 26-1651: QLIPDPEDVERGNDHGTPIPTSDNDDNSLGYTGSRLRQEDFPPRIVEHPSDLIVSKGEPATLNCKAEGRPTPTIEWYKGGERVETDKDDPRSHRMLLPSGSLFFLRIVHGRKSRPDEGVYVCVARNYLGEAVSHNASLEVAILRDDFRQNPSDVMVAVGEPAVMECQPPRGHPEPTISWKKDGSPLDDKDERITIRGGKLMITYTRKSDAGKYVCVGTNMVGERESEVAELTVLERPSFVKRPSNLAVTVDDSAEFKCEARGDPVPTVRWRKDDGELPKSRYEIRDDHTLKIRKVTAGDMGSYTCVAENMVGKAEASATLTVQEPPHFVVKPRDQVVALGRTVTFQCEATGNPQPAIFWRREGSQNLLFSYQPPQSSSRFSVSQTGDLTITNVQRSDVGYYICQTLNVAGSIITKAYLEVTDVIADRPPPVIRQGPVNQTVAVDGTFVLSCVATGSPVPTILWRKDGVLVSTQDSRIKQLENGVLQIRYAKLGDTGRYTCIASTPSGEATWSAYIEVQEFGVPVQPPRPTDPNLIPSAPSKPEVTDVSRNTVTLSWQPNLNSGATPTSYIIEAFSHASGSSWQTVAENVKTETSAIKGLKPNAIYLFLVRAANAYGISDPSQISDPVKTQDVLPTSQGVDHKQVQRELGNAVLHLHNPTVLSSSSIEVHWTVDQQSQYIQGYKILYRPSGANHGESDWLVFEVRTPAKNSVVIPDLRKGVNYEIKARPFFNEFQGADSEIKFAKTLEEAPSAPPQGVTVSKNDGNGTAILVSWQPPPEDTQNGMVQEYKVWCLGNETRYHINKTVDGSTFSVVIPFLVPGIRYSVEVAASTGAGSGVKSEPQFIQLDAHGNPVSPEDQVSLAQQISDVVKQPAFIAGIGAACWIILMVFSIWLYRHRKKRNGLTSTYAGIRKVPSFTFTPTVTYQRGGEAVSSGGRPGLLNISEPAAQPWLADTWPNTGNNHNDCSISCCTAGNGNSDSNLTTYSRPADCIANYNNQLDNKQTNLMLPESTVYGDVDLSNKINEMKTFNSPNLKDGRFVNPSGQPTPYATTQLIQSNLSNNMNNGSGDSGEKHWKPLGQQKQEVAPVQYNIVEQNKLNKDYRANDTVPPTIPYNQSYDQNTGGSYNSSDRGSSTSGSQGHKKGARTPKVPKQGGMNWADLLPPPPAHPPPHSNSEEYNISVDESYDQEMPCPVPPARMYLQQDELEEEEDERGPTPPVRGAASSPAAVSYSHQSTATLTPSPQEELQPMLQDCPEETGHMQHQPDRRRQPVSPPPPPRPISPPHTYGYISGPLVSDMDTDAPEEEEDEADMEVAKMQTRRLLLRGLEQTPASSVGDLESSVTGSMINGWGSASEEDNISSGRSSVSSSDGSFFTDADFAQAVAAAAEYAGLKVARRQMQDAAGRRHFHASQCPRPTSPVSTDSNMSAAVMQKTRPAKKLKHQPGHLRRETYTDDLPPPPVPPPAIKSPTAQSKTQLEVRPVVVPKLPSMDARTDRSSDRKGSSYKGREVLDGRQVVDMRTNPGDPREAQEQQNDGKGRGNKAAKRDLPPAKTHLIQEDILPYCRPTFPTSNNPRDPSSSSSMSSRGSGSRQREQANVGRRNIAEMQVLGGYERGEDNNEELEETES

Results are given in words; binding and its absence hold for the method and conditions named. In cells and extracts the contact can be indirect. Some binding calls cover weakened binding; strength is not graded here. For part of these data: Tags and fused reporters may be left off the sequences shown.

Experiment [1] concerns the target srGAP1-Flag (UniProt Q7Z6B7). In words: co-IP; LoVo cells (endogenous Robo1) cotransfected with Robo1-HA, srGAP1-Flag and/or USP33-GFP; IP lysis buffer (1% Triton-100, 10% glycerol, 1 mM EDTA in TBS); IP with anti-Flag, immunoblot.
Experiment [2] has as its target Robo1-HA (UniProt Q9Y6N7). In words: co-IP; LoVo cells transfected with Robo1-HA and srGAP1-GFP; lysed 48 h after transfection in IP lysis buffer (1% Triton-100, 10% glycerol, 1 mM EDTA in TBS); IP with anti-HA, immunoblot. (Immunoblotting shows a protein as a band on a membrane.)
For experiment [3], the target named is endogenous Robo1 of LoVo cells (human (endogenous in LoVo)) (UniProt Q9Y6N7). In words: co-IP; LoVo cells (endogenous Robo1) cotransfected with Robo1-HA, srGAP1-Flag and/or USP33-GFP; IP lysis buffer (1% Triton-100, 10% glycerol, 1 mM EDTA in TBS); IP with anti-Flag, immunoblot.

Consider “endogenous Robo1 of LoVo cells (from UniProt Q9Y6N7 26-1651) (receptor)”, for which the binding result in experiment [1] was “binds”.
With srGAP1-GFP (from UniProt Q7Z6B7 1-1085), the binding entry in experiment [2] is “binds”.

B1: USP33-GFP (enzyme, UniProt Q8TEY7 1-942)
chain: MTGSNSHITILTLKVLPHFESLGKQEKIPNKMSAFRNHCPHLDSVGEITKEDLIQKSLGTCQDCKVQGPNLWACLENRCSYVGCGESQVDHSTIHSQETKHYLTVNLTTLRVWCYACSKEVFLDRKLGTQPSLPHVRQPHQIQENSVQDFKIPSNTTLKTPLVAVFDDLDIEADEEDELRARGLTGLKNIGNTCYMNAALQALSNCPPLTQFFLDCGGLARTDKKPAICKSYLKLMTELWHKSRPGSVVPTTLFQGIKTVNPTFRGYSQQDAQEFLRCLMDLLHEELKEQVMEVEEDPQTITTEETMEEDKSQSDVDFQSCESCSNSDRAENENGSRCFSEDNNETTMLIQDDENNSEMSKDWQKEKMCNKINKVNSEGEFDKDRDSISETVDLNNQETVKVQIHSRASEYITDVHSNDLSTPQILPSNEGVNPRLSASPPKSGNLWPGLAPPHKKAQSASPKRKKQHKKYRSVISDIFDGTIISSVQCLTCDRVSVTLETFQDLSLPIPGKEDLAKLHSSSHPTSIVKAGSCGEAYAPQGWIAFFMEYVKRFVVSCVPSWFWGPVVTLQDCLAAFFARDELKGDNMYSCEKCKKLRNGVKFCKVQNFPEILCIHLKRFRHELMFSTKISTHVSFPLEGLDLQPFLAKDSPAQIVTYDLLSVICHHGTASSGHYIAYCRNNLNNLWYEFDDQSVTEVSESTVQNAEAYVLFYRKSSEEAQKERRRISNLLNIMEPSLLQFYISRQWLNKFKTFAEPGPISNNDFLCIHGGVPPRKAGYIEDLVLMLPQNIWDNLYSRYGGGPAVNHLYICHTCQIEAEKIEKRRKTELEIFIRLNRAFQKEDSPATFYCISMQWFREWESFVKGKDGDPPGPIDNTKIAVTKCGNVMLRQGADSGQISEETWNFLQSIYGGGPEVILRPPVVHVDPDILQAEEKIEVETRSL
On to B1, for which, in experiment [3], the binding result is given as “binds”.
